Experimental data taken from PMC5730568.
For at least one entry, the source does not settle the construct or the ends of the probe. The comparison behind a weaker result is the experiment's own reference, which may not be listed here.

Amino acid sequences for entries named in this document (tags omitted). Residues count along the entry.
UniProt Q07955, 1-186: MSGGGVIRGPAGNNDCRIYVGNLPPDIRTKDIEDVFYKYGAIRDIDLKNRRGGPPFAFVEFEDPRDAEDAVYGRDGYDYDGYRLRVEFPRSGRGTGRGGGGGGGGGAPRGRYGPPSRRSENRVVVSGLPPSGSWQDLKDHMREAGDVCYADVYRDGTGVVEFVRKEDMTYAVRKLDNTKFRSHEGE

Molecular target: SRSF1-His6 (23 kDa) (UniProt Q07955)
Test: EMSA
Conditions: 0.5 uM 2'OMe-PS-Mbnl1 (S10); recombinant protein; residues 1-186; protein details: His6 (C-term as stated); label: 5'-32P; probe letters rebuilt from the primers and the genome

Sequence: GGGUUGGUACUAAGAAGUGCCUUUCCUGACGUCUCUGCUGCUUGGAACCGCUUCUAGAGCAGCCUCUGCUUUUGCCUUGCUUGCUGCCAGCUAGACUGACGACAGCACAUCCGCCCUCCACCUCUAGCCCAGACACCCCAUUUCUACUUCUAAUCAGGAGAAAAGCUCUGAGUAUCUGCCAUUGCCCUAGG [Mbnl1-RNA]
- binding result: binds more weakly
